Reference: paper PMC6704147
These are yes or no findings as the source states them, for the method shown. In cells and extracts the contact can be indirect. Some entries that bind do so weakly or less than the wild type.

Sequences of proteins named here, by UniProt entry; tags and fusion partners are left off.
UniProt O35613: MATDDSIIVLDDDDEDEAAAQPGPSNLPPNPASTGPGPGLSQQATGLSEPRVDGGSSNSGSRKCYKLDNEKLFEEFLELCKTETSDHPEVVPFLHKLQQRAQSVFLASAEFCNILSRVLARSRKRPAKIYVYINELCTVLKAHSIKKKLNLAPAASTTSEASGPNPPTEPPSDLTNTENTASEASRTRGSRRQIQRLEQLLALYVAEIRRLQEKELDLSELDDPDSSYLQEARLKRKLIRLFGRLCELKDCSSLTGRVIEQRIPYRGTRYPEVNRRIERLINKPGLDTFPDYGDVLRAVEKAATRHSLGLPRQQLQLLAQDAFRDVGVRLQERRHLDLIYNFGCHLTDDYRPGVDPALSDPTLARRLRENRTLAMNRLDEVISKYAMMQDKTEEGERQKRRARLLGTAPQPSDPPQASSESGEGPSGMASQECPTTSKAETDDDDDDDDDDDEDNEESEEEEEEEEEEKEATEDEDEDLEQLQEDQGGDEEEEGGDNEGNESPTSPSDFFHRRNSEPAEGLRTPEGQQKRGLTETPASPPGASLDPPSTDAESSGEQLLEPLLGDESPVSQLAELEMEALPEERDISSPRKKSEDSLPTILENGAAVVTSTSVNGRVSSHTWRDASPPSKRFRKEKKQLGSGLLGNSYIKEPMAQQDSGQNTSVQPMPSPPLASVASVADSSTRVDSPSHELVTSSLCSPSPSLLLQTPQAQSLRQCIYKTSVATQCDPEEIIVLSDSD

Target: endogenous p62 (mouse striatum) (mouse (endogenous in striatum)) (UniProt Q64337)
Test: co-IP; endogenous proteins, mouse (8-week) striatal lysates; IP with anti-p62 antibody, Flag antibody as control; probed with anti-DAXX

With “endogenous DAXX (mouse striatum) (from UniProt O35613 1-739)” the binding was “binds”.
